Source: PubChem BioAssay AID493014 (National Center for Advancing Translational Sciences (NCATS), 2011)
The campaign covered roughly 340,000 compounds. About 170 (0.05%) were called active. This list was built around the results that the source calls inconclusive (neither active nor inactive); the mix of calls is not that of the screen. Calls come from the whole dose curve; as a rule, active = well fitted inhibition curve with a large enough effect in the signal ratio, with a control signal flat (not every such curve was filed as active); inconclusive = small, poorly fitted or top-dose-only effect, or effect the other way, or a change in a side signal; inactive = flat fitted curve, though single readings scatter; the % refers to the signal ratio. Potencies beside an inconclusive call are fits to weak or partial responses and may not hold up.

assay: qHTS Assay to Find Inhibitors of Chronic Active B-Cell Receptor Signaling; settings: ABC-DLBCL IkBa-CBG/CBR reporter, luminescence ratio (green luciferase fused to IkBa over red control in TMD8 lymphoma cells), 4 h; activity change, negative = inhibition: at 46.1 µM (top of the series);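 for activity change, negative = inhibition: plate controls were basal doxycycline-induced cells for no effect and cells given 10 µM MG132 for full effect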
Summary of the method: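 TMD8 human ABC-DLBCL cells with doxycycline-inducible IκBα–green luciferase fusion and unfused red luciferase, in 0.5% FBS medium; compounds up to 46 uM, 4 h at 37C. Green/red luminescence ratio, filter-overlap corrected, fitted to concentration-response curves.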
Potency is the fitted concentration of half-maximal effect.

SMILES | Potency | activity change, negative = inhibition
CCOc1ccccc1NC(=O)Cn1c(=O)c2ccccc2n(CC)c1=O | inconclusive: 0.184 µM [falling, full curve, poor fit] | –
COc1ccc(-c2[nH]ncc2CN(CCO)Cc2cccs2)c(F)c1 | – | inconclusive: -0.743%
COc1ccc(NC2=CC(=O)CC(c3ccccc3)C2)cc1 (stereo unspecified) | – | inconclusive: 4.71%
O=C(Nc1ccc(F)c(F)c1)C1CCCN1S(=O)(=O)c1ccc(F)cc1 (stereo unspecified) | – | inactive: 10.8%
O=C(N/N=C/c1ccoc1)c1cc(O)cc(O)c1 | inconclusive: 12.6 µM [falling, single point] | –
COc1ccccc1-c1sc2cc3c(cc2c1-c1ccc(OCCN2CCOCC2)cc1)OCO3 | inconclusive: 25.9 µM [falling, partial curve, poor fit] | –
CSCCC(NC(=O)c1ccc(Cl)cc1)C(=O)NC(C)(C)C (stereo unspecified) | – | inconclusive: 0.292%
COc1ccc(COC(=O)Nc2cc3c(C(F)(F)F)nn(C)c3s2)cc1 | – | inactive: -8.72%
COc1ccc(Nc2cc(C(=O)NCc3ccccn3)c3ccccc3n2)c(OC)c1 | – | inconclusive: 15.1%
Cn1c(=O)[nH]c(Nc2ccc(F)cc2)c([N+](=O)[O-])c1=O | – | inconclusive: -5.64%
CSCC[C@H](N)C(=O)NC[C@H]1O[C@@H](n2cnc3c(N)ncnc32)[C@H](O)[C@@H]1O | – | inconclusive: -3.01%
CC(=O)c1cccc(NC(=O)c2ccc(N(Cc3ccc(C)cc3)S(C)(=O)=O)cc2)c1 | inconclusive: 20.6 µM [falling, single point] | –
O=S(=O)(c1ccc(Oc2ccc(F)c(Cl)c2)nc1)N1CCOCC1 | inconclusive: 32.6 µM [falling, partial curve, poor fit] | –
O=c1c2c(nc3cc(-c4ccc(F)cc4)[nH]n13)CCCC2 | inconclusive: 12.6 µM [falling, partial curve] | –
COc1ccc2c(c1)c1ccccc1n2C | – | inconclusive: 9.57%
O=C(N/N=C/c1cn[nH]c1-c1ccc(F)cc1)c1ccncc1 | – | inactive: -4.2%
CNC[C@@H](C)NC[C@@H](Cc1ccccc1)NCCc1ccccc1 | inconclusive: 20 µM [falling, single point] | –
CCOC(=O)c1ccc2nc(Nc3nc4ccc(F)cc4s3)sc2c1 | – | inconclusive: -32.1%
CCCc1cc(=O)[nH]c(SCc2csc(-c3ccccc3)n2)n1 | – | inconclusive: -16.5%
CCc1ccc(-c2cc(C)no2)cc1S(=O)(=O)Nc1cc(C)ccn1 | – | inactive: -0.357%
O=C(CCCN1C(=O)/C(=C\c2ccccc2)SC1=S)Nc1ccccc1O | inconclusive: 15.8 µM [falling, partial curve, poor fit] | –
COc1ccccc1C(=O)NCCC(=O)NC1CCC(C)CC1 (stereo unspecified) | inconclusive: 29.1 µM [falling, single point] | –
O=C(COc1ccc2c(-c3ccccc3)cc(=O)oc2c1)Nc1ccc(CCO)cc1 | – | inactive: -16.1%
Cc1ccccc1C(=O)NNC(=O)c1cc(N)cc([N+](=O)[O-])c1 | inconclusive: 16.4 µM [falling, partial curve, poor fit] | –
CCOC(=O)c1cc(OC(=O)c2cccc([N+](=O)[O-])c2)n(-c2ccccc2)n1 | – | inconclusive: -0.48%
CC(Cc1ccc(Cl)cc1)N1CCC(n2nccc2NC(=O)C2CCCC2)CC1 (stereo unspecified) | – | inconclusive: -27.3%

SMILES | Potency | activity change, negative = inhibition
Clc1ccc(/C=N/Nc2nc(Cl)nc3ccccc23)cc1 | inconclusive: 0.794 µM [falling, full curve] | –
CCOC(=O)CN(C(=O)COC(=O)C1(c2ccccc2)CC1)c1ccc(F)cc1 | inconclusive: 8.2 µM [falling, partial curve] | –
O=C(Cc1ccc(-n2c(=O)c3ccccc3n(Cc3ccccc3F)c2=O)cc1)NCC1CCCO1 (stereo unspecified) | inconclusive: 2.59 µM [falling, full curve] | –
COc1ccc(NC(=O)C2CC(=O)N(c3cc(C)ccc3C)C2)cc1 (stereo unspecified) | – | inconclusive: 4.89%
COc1ccc(NCc2ccc(OC)c(OC)c2)cc1 | – | inconclusive: 2.04%
Cc1ccc2cccc(S(=O)(=O)Nc3c(C)n(C)n(-c4ccccc4)c3=O)c2n1 | – | inactive: -3.23%
O=C(Nc1ccccc1C(=O)NCCCn1ccnc1)c1ccccc1 | – | inconclusive: 8.93%
COc1cccc(/C=C2\SC(=S)N(N3CCOCC3)C2=O)c1OC | inconclusive: 8.2 µM [rising, partial curve, poor fit] | –
Cc1nc(N2CCN(c3ccccc3O)CC2)c2c(-c3ccccc3)csc2n1 | – | inconclusive: -0.522%
COc1ccc(NS(=O)(=O)c2ccc3c(c2)CC(C)N3C(=O)C2CCC2)cc1OC (stereo unspecified) | inconclusive: 0.562 µM [falling, full curve, poor fit] | –
CN(C)N=Nc1nc2c(c(=O)n(C)c(=O)n2C)n1C | – | inconclusive: 6.11%
CC1(C)CC(NC(=O)c2cc(S(=O)(=O)N3CCCCC3)ccc2Cl)CC(C)(C)N1 | – | inconclusive: 2.71%
COc1c(Br)cc(/C=N/n2c(-c3ccccc3)n[nH]c2=S)c(O)c1Br | inconclusive: 20 µM [falling, single point] | –
CC(C)n1cc(-c2ccc(Cl)cc2)cc(C#N)c1=O | inconclusive: 5.8 µM [rising, full curve] | –
COCc1cc(CN(C)C(=O)C2CCC(=O)N(Cc3cccc(OC)c3)C2)[nH]n1 (stereo unspecified) | – | inactive: 11.9%
Cc1ccc(NC(=O)c2ccc3c(c2)OCCO3)nc1 | inconclusive: 18.4 µM [falling, partial curve] | –
Cc1ccc(S(=O)(=O)N2CCCCC2)cc1NC(=O)CSc1ncnc2ccccc12 | inconclusive: 29.1 µM [falling, partial curve, poor fit] | –
COc1ccc2c(c1)C(c1cccs1)=NNC(c1cccnc1)=N2 | inconclusive: 22.4 µM [falling, single point] | –
O=[N+]([O-])c1ccc(CSc2nc3ccccc3[nH]2)cc1 | – | inactive: -5.04%
O=C(NC1CCCC1)C(c1cccs1)N(Cc1ccco1)C(=O)c1csnn1 (stereo unspecified) | – | inconclusive: 2.44%
COc1ccc(CCNC(=O)c2ccc(SC)cc2OC)cc1 | – | inconclusive: -8.23%
COc1ccc(CNc2nc(NCc3ccc(OC)cc3)c3ncn(C4CCCC4)c3n2)cc1 | inconclusive: 4.11 µM [falling, full curve] | –
O=[N+]([O-])c1ccc(Sc2cccc[n+]2[O-])c2nonc12 | inconclusive: 5.62 µM [rising, full curve, poor fit] | –
CCC(=O)Nc1cc(OC)c(NC(=O)c2ccccc2)cc1OC | – | inactive: 6.59%
O=C(/C=C/c1cccs1)Nc1nc(-c2ccccc2)cs1 | inconclusive: 18.4 µM [falling, partial curve, poor fit] | –
Cc1cc(C(=O)Nc2cccc3ccccc23)co1 | – | inconclusive: -18.5%

Two compounds drawn at random from those above:
SMILES | Potency | activity change, negative = inhibition
Cc1ccc2cccc(S(=O)(=O)Nc3c(C)n(C)n(-c4ccccc4)c3=O)c2n1 | – | inactive: -3.23%
CCOC(=O)CN(C(=O)COC(=O)C1(c2ccccc2)CC1)c1ccc(F)cc1 | inconclusive: 8.2 µM [falling, partial curve] | –

Additional records follow.

SMILES | Potency | activity change, negative = inhibition
COc1cc(C(=O)N2CCC(C(=O)Nc3cccc(C(C)=O)c3)CC2)cc(OC)c1OC | – | inconclusive: -9.1%
O=C(O)c1ccc(-n2nnnc2Oc2ccccc2C(=O)N2CCOCC2)cc1 | – | inconclusive: 11.6%
Cc1cc(=O)n2c3ccccc3n(CC(O)CN3CCCC3)c2c1C#N (stereo unspecified) | – | inconclusive: 5.98%
N/C(=N\OC(=O)c1ccccc1Cl)c1ccncc1 | inconclusive: 7.94 µM [rising, partial curve, poor fit] | –
CC(C)C[C@H](NC(=O)c1nc[nH]c1C(=O)N[C@@H](CC(C)C)C(=O)OCc1ccccc1)C(=O)OCc1ccccc1 | inconclusive: 15.8 µM [rising, single point] | –
COc1cc2ccccc2cc1C(=O)N1CC(C)CC(C)C1 (stereo unspecified) | – | inactive: -0.497%
Cc1ccc(/C=C(/C#N)C(=O)NC(=O)Oc2ccccc2)cc1 | – | inconclusive: -4.87%
COc1ccc(S(=O)(=O)N2Cc3ccccc3CC2C(=O)O)cc1 (stereo unspecified) | – | inconclusive: 15.6%
CN(c1ccc(C(=O)N2CCN(Cc3ccc4c(c3)OCO4)CC2)cc1)S(C)(=O)=O | – | inactive: -0.668%
N#Cc1ccccc1S(=O)(=O)N1CCN(C(=O)C2COc3ccccc3O2)CC1 (stereo unspecified) | – | inconclusive: -0.3%
CC(=O)NC1CC2CCCC(C1)N2CC(=O)N1CCCc2ccccc21 (stereo unspecified) | – | inconclusive: 4.99%
CN(C(=O)c1ccncc1)c1nnc(-c2ccncc2)s1 | – | inconclusive: 9.32%
COc1cc(/C=C2\SC(=S)N(Nc3ccccc3)C2=O)cc(OC)c1OC | inconclusive: 25.1 µM [falling, single point] | –
NC(=S)N/N=C\c1ccc(-c2cccc(Cl)c2Cl)o1 | inconclusive: 5.17 µM [falling, full curve] | –
O=C(O)c1ccc(N/N=C/c2cccc(C(F)(F)F)c2)cc1 | – | inconclusive: 130%
CC(O)CNCCCOc1ccc(Cl)cc1C(C)(C)C (stereo unspecified) | inconclusive: 0.631 µM [falling, full curve, poor fit] | –
N#CC1=C(N)Oc2cc(O)ccc2C1c1cccnc1 (stereo unspecified) | – | inactive: 4.81%
COc1cccc2c(=O)n(CC(=O)N3CCCCCC3)ccc12 | inconclusive: 1.84 µM [rising, full curve, poor fit] | –
CCc1ccccc1OCC(=O)Nc1ccc(S(N)(=O)=O)cc1 | – | inconclusive: -40.2%
CC(=O)O/N=C/c1c(N2CCOCC2)n(C)c2ccccc12 | inconclusive: 22.4 µM [falling, partial curve] | –
Oc1ccccc1/C=N/NC(=S)NC1CC2CC1C1C=CCC21 (stereo unspecified) | – | inactive: -1.48%
O=C(COc1ccccc1[N+](=O)[O-])Nc1ccc2c(c1)CCC2 | – | inconclusive: 6.36%
O=C(c1ccccc1-c1nc(-c2ccccc2)no1)N1CCOCC1 | – | inconclusive: -2.49%
O=C(OCCc1cc2ccccc2c(=O)o1)c1ccc2c(c1)OCO2 | – | inconclusive: -24.4%

Grouped by structure: the entries above containing a furan ring, fused or not
SMILES | Potency | activity change, negative = inhibition
O=C(N/N=C/c1ccoc1)c1cc(O)cc(O)c1 | inconclusive: 12.6 µM [falling, single point] | –
O=C(NC1CCCC1)C(c1cccs1)N(Cc1ccco1)C(=O)c1csnn1 (stereo unspecified) | – | inconclusive: 2.44%
Cc1cc(C(=O)Nc2cccc3ccccc23)co1 | – | inconclusive: -18.5%
NC(=S)N/N=C\c1ccc(-c2cccc(Cl)c2Cl)o1 | inconclusive: 5.17 µM [falling, full curve] | –
